Results are given in words; binding and its absence hold for the method and conditions named. Binding seen in cells or lysates may run through a third protein. Some results given as binding are weak or reduced against the parent protein; the word gives no strength.
T1: ANKS6 (endogenous, mouse kidney) (mouse (endogenous in kidney)) (UniProt Q6GQX6)
T1 sequence: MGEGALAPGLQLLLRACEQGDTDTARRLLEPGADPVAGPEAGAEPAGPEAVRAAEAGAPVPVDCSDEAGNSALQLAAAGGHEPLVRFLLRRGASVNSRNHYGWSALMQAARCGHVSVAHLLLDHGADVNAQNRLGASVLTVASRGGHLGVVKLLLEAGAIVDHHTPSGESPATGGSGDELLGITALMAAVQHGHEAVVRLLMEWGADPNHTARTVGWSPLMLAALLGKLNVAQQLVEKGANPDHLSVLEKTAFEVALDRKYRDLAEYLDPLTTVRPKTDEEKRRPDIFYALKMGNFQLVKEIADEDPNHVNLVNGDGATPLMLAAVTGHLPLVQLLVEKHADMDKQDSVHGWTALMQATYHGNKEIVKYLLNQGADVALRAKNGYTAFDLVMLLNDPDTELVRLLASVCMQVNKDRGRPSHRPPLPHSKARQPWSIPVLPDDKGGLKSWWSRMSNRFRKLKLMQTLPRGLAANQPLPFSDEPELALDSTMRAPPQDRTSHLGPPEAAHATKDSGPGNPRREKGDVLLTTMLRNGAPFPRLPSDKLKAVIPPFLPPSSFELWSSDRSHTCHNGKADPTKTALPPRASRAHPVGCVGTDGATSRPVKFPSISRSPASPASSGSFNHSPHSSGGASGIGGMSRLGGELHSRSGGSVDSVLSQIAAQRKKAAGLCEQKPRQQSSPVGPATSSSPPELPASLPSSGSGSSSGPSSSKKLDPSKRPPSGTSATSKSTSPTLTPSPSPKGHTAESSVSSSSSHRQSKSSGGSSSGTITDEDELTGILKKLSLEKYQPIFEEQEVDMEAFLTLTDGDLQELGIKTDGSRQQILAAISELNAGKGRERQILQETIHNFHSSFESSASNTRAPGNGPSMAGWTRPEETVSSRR

T2: ANKS3 (endogenous, mouse kidney) (mouse (endogenous in kidney)) (UniProt Q9CZK6)
T2 sequence: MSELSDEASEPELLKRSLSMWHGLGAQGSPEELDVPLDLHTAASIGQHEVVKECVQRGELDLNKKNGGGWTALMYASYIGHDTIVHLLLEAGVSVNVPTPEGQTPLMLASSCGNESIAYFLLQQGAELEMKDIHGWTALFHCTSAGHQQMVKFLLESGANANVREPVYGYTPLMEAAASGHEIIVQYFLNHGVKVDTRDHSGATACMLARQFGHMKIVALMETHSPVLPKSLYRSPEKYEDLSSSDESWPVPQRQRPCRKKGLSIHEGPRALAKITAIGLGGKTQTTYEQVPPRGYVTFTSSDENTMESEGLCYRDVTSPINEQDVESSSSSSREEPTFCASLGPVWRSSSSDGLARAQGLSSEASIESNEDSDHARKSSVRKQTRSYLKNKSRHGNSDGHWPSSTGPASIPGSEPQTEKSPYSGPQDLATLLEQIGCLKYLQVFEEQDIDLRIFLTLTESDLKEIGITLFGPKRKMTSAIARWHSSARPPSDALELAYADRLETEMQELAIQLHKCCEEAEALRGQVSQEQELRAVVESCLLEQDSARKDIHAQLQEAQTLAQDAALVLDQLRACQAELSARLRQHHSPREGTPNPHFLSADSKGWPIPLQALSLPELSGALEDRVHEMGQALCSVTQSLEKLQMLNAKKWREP


Tests used:
[1] = target: T1, ANKS6 (endogenous, mouse kidney) (mouse (endogenous in kidney)); experiment: co-IP; 750 ug of kidney protein extracts with anti-Anks3 or anti-Anks6 antibody or control IgGs overnight at 4°C; Protein A or G microbeads, MAC ucolumns; Western blot
[2] = target: T2, ANKS3 (endogenous, mouse kidney) (mouse (endogenous in kidney)); experiment: as above

Binder	binding [1]	binding [2]
ANKS3 (endogenous, mouse kidney) (protein, UniProt Q9CZK6 1-655) MSELSDEASEPELLKRSLSMWHGLGAQGSPEELDVPLDLHTAASIGQHEVVKECVQRGELDLNKKNGGGWTALMYASYIGHDTIVHLLLEAGVSVNVPTPEGQTPLMLASSCGNESIAYFLLQQGAELEMKDIHGWTALFHCTSAGHQQMVKFLLESGANANVREPVYGYTPLMEAAASGHEIIVQYFLNHGVKVDTRDHSGATACMLARQFGHMKIVALMETHSPVLPKSLYRSPEKYEDLSSSDESWPVPQRQRPCRKKGLSIHEGPRALAKITAIGLGGKTQTTYEQVPPRGYVTFTSSDENTMESEGLCYRDVTSPINEQDVESSSSSSREEPTFCASLGPVWRSSSSDGLARAQGLSSEASIESNEDSDHARKSSVRKQTRSYLKNKSRHGNSDGHWPSSTGPASIPGSEPQTEKSPYSGPQDLATLLEQIGCLKYLQVFEEQDIDLRIFLTLTESDLKEIGITLFGPKRKMTSAIARWHSSARPPSDALELAYADRLETEMQELAIQLHKCCEEAEALRGQVSQEQELRAVVESCLLEQDSARKDIHAQLQEAQTLAQDAALVLDQLRACQAELSARLRQHHSPREGTPNPHFLSADSKGWPIPLQALSLPELSGALEDRVHEMGQALCSVTQSLEKLQMLNAKKWREP	binds	–
ANKS6 (endogenous, mouse kidney) (protein, UniProt Q6GQX6 1-883) MGEGALAPGLQLLLRACEQGDTDTARRLLEPGADPVAGPEAGAEPAGPEAVRAAEAGAPVPVDCSDEAGNSALQLAAAGGHEPLVRFLLRRGASVNSRNHYGWSALMQAARCGHVSVAHLLLDHGADVNAQNRLGASVLTVASRGGHLGVVKLLLEAGAIVDHHTPSGESPATGGSGDELLGITALMAAVQHGHEAVVRLLMEWGADPNHTARTVGWSPLMLAALLGKLNVAQQLVEKGANPDHLSVLEKTAFEVALDRKYRDLAEYLDPLTTVRPKTDEEKRRPDIFYALKMGNFQLVKEIADEDPNHVNLVNGDGATPLMLAAVTGHLPLVQLLVEKHADMDKQDSVHGWTALMQATYHGNKEIVKYLLNQGADVALRAKNGYTAFDLVMLLNDPDTELVRLLASVCMQVNKDRGRPSHRPPLPHSKARQPWSIPVLPDDKGGLKSWWSRMSNRFRKLKLMQTLPRGLAANQPLPFSDEPELALDSTMRAPPQDRTSHLGPPEAAHATKDSGPGNPRREKGDVLLTTMLRNGAPFPRLPSDKLKAVIPPFLPPSSFELWSSDRSHTCHNGKADPTKTALPPRASRAHPVGCVGTDGATSRPVKFPSISRSPASPASSGSFNHSPHSSGGASGIGGMSRLGGELHSRSGGSVDSVLSQIAAQRKKAAGLCEQKPRQQSSPVGPATSSSPPELPASLPSSGSGSSSGPSSSKKLDPSKRPPSGTSATSKSTSPTLTPSPSPKGHTAESSVSSSSSHRQSKSSGGSSSGTITDEDELTGILKKLSLEKYQPIFEEQEVDMEAFLTLTDGDLQELGIKTDGSRQQILAAISELNAGKGRERQILQETIHNFHSSFESSASNTRAPGNGPSMAGWTRPEETVSSRR	–	binds

— publication PMC4556665
